Values quoted from earlier work as cited in publication PMC11232401, “Characterization of antimalarial activity of artemisinin-based hybrid drugs” (Antimicrobial Agents and Chemotherapy, 2024).

Tested on: J774 cell line
Design: method as in PMID 31290221, PMID 34832911, PMID 38559731
Details: CC50/IC50, CC50 in J774 cell line; cited from earlier work

SMILES	Selectivity index
COCCOCCOCCOCCn1c(-c2ccc(-n3cc(-c4ccc(OC5OC6OC7(C)CCC8C(C)CCC(C5C)C68OO7)cc4)nn3)cc2)nc2ccccc21 (centres unmarked) [Hybrid 1]	33333
CC1CCC2C(C)C(OC(=O)CCC(=O)OCCNc3ccnc4cc(Cl)ccc34)OC3OC4(C)CCC1C32OO4 (centres unmarked) [Hybrid 2]	6378
